Source: PubChem BioAssay AID504834 (National Center for Advancing Translational Sciences (NCATS), 2011)
Out of some 320,000 compounds screened, about 22,000 (6.9%) were called active. Inconclusive results, whose numbers are uncertain, are shown with a selection of clear calls. Calls come from the whole dose curve; as a rule, active = well fitted inhibition curve with a large enough effect; inconclusive = small, poorly fitted or top-dose-only effect, or another doubt; inactive = no such curve, though single readings can be large or run the other way. Where the call is inconclusive, the potency comes from a doubtful curve fit.
% is set by controls: 0 for no effect and ±100 for the full control effect; potency is the fitted concentration of half-maximal effect.

Assay: Primary qHTS for delayed death inhibitors of the malarial parasite plastid, 96 hour incubation
Settings: P. falciparum luciferase reporter growth; series mostly up to 28.7 µM; activity change, negative = inhibition: at the top concentration
In short: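 Cell-based qHTS: luciferase-tagged P. falciparum in erythrocytes (2% hematocrit, 0.05% parasitemia final) incubated with compounds for 96 hours, 37 C, 5% CO2; luciferase detection reagent then added and luminescence measured.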
In the case of `COc1ccc(Cc2nc3ccc(C(=O)N(C)Cc4cc(C)[nH]n4)cc3o2)cc1OC`, the “activity change, negative = inhibition” value is reported as inactive: -24.9%. For `CC(=O)NC(Cc1c[nH]c2ccccc12)C(=O)O` (centres undefined), the Potency was inconclusive: 7.38 µM [inhibitor, partial curve, poor fit]. In the case of `CCCOc1ccc(OC(=O)Cc2ccc(OC)c(S(=O)(=O)N3CCOCC3)c2)cc1`, the Potency is reported as inconclusive: 18.5 µM [inhibitor, single point]. In the case of `Cc1cc(-c2ccc(C)c(S(=O)(=O)NCCCN3CCN(c4ccccc4F)CC3)c2)on1`, the Potency is reported as active: 4.65 µM. With `Cc1cc(C)c(C#N)c(SCSCc2ccccc2)n1` the Potency was inconclusive: 18.5 µM [inhibitor, single point]. In the case of `CN(C)S(=O)(=O)c1ccc(NC(=O)C2COc3ccccc3O2)cc1` (centres undefined), the Potency is reported as inconclusive: 18.5 µM [inhibitor, single point]. In the case of `O=C(COC(=O)Cn1cc(C(F)(F)F)ccc1=O)NCc1ccccc1`, the “activity change, negative = inhibition” value is reported as inactive: 33.5%. For `COC(=O)C1(C(F)(F)F)N=C(C(F)(F)F)Nc2ccc(Cl)cc21` (centres undefined), the “activity change, negative = inhibition” value was inactive: 29.8%. With `Cc1ccc(-n2nnc3c(=O)n(CC(=O)NCc4ccco4)cnc32)cc1` the Potency was inconclusive: 13.1 µM [inhibitor, single point]. In the case of `COc1ccc(-c2cc(C(F)(F)F)n3nc(C(=O)O)cc3n2)cc1OC`, the Potency is reported as inconclusive: 18.5 µM [inhibitor, single point]. For `COc1cc([N+](=O)[O-])ccc1NC(=O)Oc1ccc(NC(C)=O)cc1`, the “activity change, negative = inhibition” value was inactive: 71.5%. For `Cc1ccc2c(CC(=O)Nc3nc(C)cs3)coc2c1`, the “activity change, negative = inhibition” value was inactive: 4.85%. For `Cc1ccc(-n2c(C)nc3c(cnn3-c3ccc(F)cc3)c2=O)cc1`, the “activity change, negative = inhibition” value was inactive: 12.1%. In the case of `Cc1noc(C)c1C(=O)OC(C)C(=O)N(C)c1ccccc1` (centres undefined), the Potency is reported as inconclusive: 18.5 µM [inhibitor, single point]. In the case of `C=CCn1c(SCC(=O)N2CCOCC2)nc2ccccc2c1=O`, the Potency is reported as inconclusive: 11.7 µM [inhibitor, single point]. With `Cn1cnc(S(=O)(=O)Nc2ccc(Cl)c(C(F)(F)F)c2)c1` the “activity change, negative = inhibition” value was inactive: 29.1%. In the case of `O=c1[nH][nH]c(C(F)(F)F)c1C=Nc1ccccc1Cl`, the “activity change, negative = inhibition” value is reported as inactive: 31.4%. With `COC(=O)c1nn(-c2ccc(OC)cc2)c(=O)cc1O` the “activity change, negative = inhibition” value was inactive: -13%. In the case of `CCCCc1cc(=O)oc2cc(C)cc(OC(C)C(=O)O)c12` (centres undefined), the “activity change, negative = inhibition” value is reported as inactive: 3.72%. With `CCOc1ccc(NC(=S)N/N=C(\C)Cc2ccc(OC)cc2)cc1` the “activity change, negative = inhibition” value was inactive: -23.4%. In the case of `COc1cc(NC(=O)N2CCNC2=O)cc(C(=O)Nc2cccc(C(F)(F)F)c2)c1`, the “activity change, negative = inhibition” value is reported as inactive: 27.2%. With `O=[N+]([O-])c1cc(S(=O)(=O)Nc2ccccc2)ccc1N1CCN(c2ccc(O)cc2)CC1` the Potency was inconclusive: 18.5 µM [inhibitor, single point]. In the case of `CC(C)(O)C#Cc1ccc(C(=O)N2CCC(C(N)=O)(N3CCCCC3)CC2)o1`, the Potency is reported as inconclusive: 0.329 µM [inhibitor, full curve, poor fit]. With `O=C(Nc1ccsc1C(=O)N1CCCC1)c1ccccc1` the Potency was inconclusive: 4.15 µM [inhibitor, partial curve, poor fit]. For `O=S(=O)(Nc1ccon1)c1ccc(F)c(F)c1`, the Potency was inconclusive: 18.5 µM [inhibitor, single point]. With `Cc1ccc(CN2CCN(Cc3cnn(-c4ccc(F)cc4)c3)CC2CCO)o1` (centres undefined) the Potency was inconclusive: 0.0657 µM [inhibitor, full curve, poor fit]. With `CCCc1nc2c([nH]1)C(c1cccnc1)C(C#N)=C(N)O2` (centres undefined) the Potency was inconclusive: 5.86 µM [inhibitor, partial curve, poor fit]. For `COc1ccc(-c2nc(CS(=O)(=O)CC(=O)NCc3ccccc3Br)c(C)o2)cc1`, the Potency was inconclusive: 10.4 µM [inhibitor, single point]. With `COc1ccc(OC)c(C2NC(=S)NC(C)=C2C(=O)Nc2ccccn2)c1` (centres undefined) the “activity change, negative = inhibition” value was inactive: 6.43%. For `Cc1ccc(OCCn2cnc(Cl)c2Cl)cc1`, the Potency was inconclusive: 11.7 µM [inhibitor, single point]. For `Cc1cccc(NC(=O)c2cc(-c3cc(Cl)ccc3O)n[nH]2)c1`, the Potency was active: 2.33 µM. In the case of `CCN1CCCC1CNC(=O)c1ccc(CS(=O)(=O)c2ccccc2C)o1` (centres undefined), the Potency is reported as inconclusive: 0.828 µM [inhibitor, full curve, poor fit]. In the case of `COc1ccc(S(=O)(=O)N2CCCCC2)cc1NC(=O)c1cccnc1SC`, the Potency is reported as inconclusive: 9.28 µM [inhibitor, single point]. In the case of `COc1cc(OC)c(NC(=O)c2ccc3c(SCC(=O)O)c4c(nc3c2)CCCC4)cc1Cl`, the “activity change, negative = inhibition” value is reported as inactive: 226%. With `CC(C)(C)OC(=O)NCCCCCc1nnc(SCc2ccccc2F)o1` the Potency was inconclusive: 11.7 µM [inhibitor, single point]. With `CCN(Cc1ccccc1)CC(O)COC(c1ccc(OC)cc1)c1ccc(OC)cc1` (centres undefined) the Potency was active: 9.28 µM. In the case of `Cc1ccc(N(CC(=O)N(C)Cc2ccccc2)S(C)(=O)=O)cc1C`, the Potency is reported as inconclusive: 13.1 µM [inhibitor, single point]. In the case of `COC(=O)C1CC(O)CN1C(=O)Nc1cccc(C(F)(F)F)c1` (centres undefined), the “activity change, negative = inhibition” value is reported as inactive: 10.1%. For `CC(=O)Nc1cccc(-n2nnc(SCC(=O)Nc3ccc(F)c(Cl)c3)n2)c1`, the Potency was inconclusive: 18.5 µM [inhibitor, single point]. For `O=C1CCC(C(=O)N(CCO)Cc2ccccc2)CN1CC1CCCCC1` (centres undefined), the Potency was inconclusive: 18.5 µM [inhibitor, single point]. In the case of `COc1ccc(/C(O)=C2/C(=O)C(=O)N(CCN3CCNCC3)C2c2cccc([N+](=O)[O-])c2)cc1` (centres undefined), the Potency is reported as inconclusive: 5.22 µM [inhibitor, partial curve]. With `O=C(c1ccc(F)cc1)N1CCC(C(=O)N2CCN(S(=O)(=O)c3cccc(F)c3)CC2)CC1` the Potency was inconclusive: 8.28 µM [inhibitor, partial curve]. For `FC(F)(F)c1cc(Sc2ccccc2)nc(-c2ccccn2)n1`, the Potency was inconclusive: 0.117 µM [inhibitor, full curve, poor fit]. With `CCOC(=O)C1=C(O)CSC1=Nc1cccc(Cl)c1` the Potency was inconclusive: 18.5 µM [inhibitor, single point]. For `O=C(COC(=O)/C=C/c1cccc(C(F)(F)F)c1)NC1CCS(=O)(=O)C1` (centres undefined), the “activity change, negative = inhibition” value was inactive: -14.2%. With `COc1ccc(Cn2cc3c(-c4ccc(F)cc4)nnc-3c3cc(OC)c(OC)cc32)cc1` the Potency was active: 0.147 µM. In the case of `C=C1C(=O)O[C@@H]2C[C@@H](C)[C@@H]3C4OC4C(=O)[C@@]3(C)[C@@H](O)[C@H]12` (some centres undefined), the Potency is reported as active: 3.29 µM. With `COc1ccccc1C(=O)Nc1ccnn1C1CCN(C)CC1` the “activity change, negative = inhibition” value was inactive: 21.2%. With `S=C(N/N=C/c1cccs1)NC1CC2CCC1C2` (centres undefined) the Potency was active: 10.4 µM. For `Cc1ccc2cc(C#N)c(N3CCCN(S(=O)(=O)c4ccc(F)cc4)CC3)nc2c1`, the “activity change, negative = inhibition” value was inactive: -15.3%. In the case of `O=C(COC(=O)c1ccccc1Nc1ccccc1)NCc1ccccc1`, the Potency is reported as inconclusive: 7.38 µM [inhibitor, single point]. In the case of `COC(=O)C1=C(c2ccccc2OCc2ccccc2)C[C@@H]2CC[C@H]1N2C(=O)NCc1cccc(C(F)(F)F)c1`, the Potency is reported as inconclusive: 3.7 µM [inhibitor, partial curve]. In the case of `Cc1cc(C(=O)Nc2ccc(S(=O)(=O)Nc3onc(C)c3C)cc2)cs1`, the “activity change, negative = inhibition” value is reported as inactive: 73.5%. In the case of `CN(CC(=O)NCc1ccccn1)S(=O)(=O)c1ccc(F)cc1`, the Potency is reported as active: 14.7 µM. In the case of `O=C(Cn1ccc([N+](=O)[O-])n1)Nc1nccs1`, the “activity change, negative = inhibition” value is reported as inactive: 2.13%. In the case of `COC(=O)c1ccc(NC(=O)c2ccc(F)cc2)o1`, the “activity change, negative = inhibition” value is reported as inactive: 8.57%. For `CC(=O)Nc1ccc(S(=O)(=O)Nc2c(C)nn(-c3ccccc3)c2C)cc1`, the Potency was inconclusive: 0.0828 µM [inhibitor, full curve, poor fit]. With `N#Cc1nc(-c2ccco2)oc1NCc1ccccc1Cl` the “activity change, negative = inhibition” value was inactive: -0.117%. With `O=C(COC(=O)c1cccc(O)c1)Nc1ccc(N2CCOCC2)cc1` the Potency was inconclusive: 7.38 µM [inhibitor, partial curve, poor fit]. With `CCOC(=O)C(NC(C)=O)(N1CCOCC1)C(F)(F)F` (centres undefined) the Potency was inconclusive: 18.5 µM [inhibitor, single point]. For `Cc1ccc(C(=O)N2C(=S)C(c3ccc(F)cc3)=NC23CCN(C)CC3)cc1`, the Potency was inconclusive: 9.28 µM [inhibitor, single point]. With `O=C(NCC1CCCO1)c1nnc(Cc2ccc(F)cc2)o1` (centres undefined) the Potency was inconclusive: 2.33 µM [inhibitor, full curve]. In the case of `CC(C)N1CCN(C(=O)C2CCC(=O)N(CCc3cccc(F)c3)C2)CC1` (centres undefined), the “activity change, negative = inhibition” value is reported as inactive: 4.02%. With `O=C(Nc1ccc2oc(=O)ccc2c1)c1ccc(-c2ccc(Cl)cc2)o1` the Potency was inconclusive: 2.33 µM [inhibitor, full curve]. For `Nc1c(C(=O)NCc2ccccc2)nnn1Cc1ccc(F)cc1`, the Potency was inconclusive: 18.5 µM [inhibitor, single point]. With `O=c1c2cc(Cl)ccc2[nH]c(=S)n1Cc1cccs1` the Potency was active: 13.1 µM. In the case of `COc1ccc(CN(C)C(=O)C23CC4CC(CC(Cl)(C4)C2)C3)c(OC)c1OC`, the Potency is reported as inconclusive: 14.7 µM [inhibitor, partial curve]. With `O=C(CSc1nnc(NC(=O)c2cccc(F)c2)s1)NC1CC1` the “activity change, negative = inhibition” value was inactive: 42.4%. In the case of `O=C(Cc1ccc(Cl)cc1)Nc1cccc(S(=O)(=O)N2CCCCC2)c1`, the Potency is reported as inconclusive: 18.5 µM [inhibitor, single point]. For `CCCOCCc1nnc(N)s1`, the “activity change, negative = inhibition” value was inactive: 12.2%. For `COCCCNC(=O)c1sc2ncnc(N3CCc4ccccc4C3)c2c1C`, the Potency was active: 6.57 µM. For `COCCCn1cn[nH]c1=S`, the Potency was inconclusive: 4.15 µM [inhibitor, partial curve, poor fit]. With `CCCCCCCCCCCCCCCC[n+]1cccc(C(=O)N(CC)CC)c1` the Potency was active: 2.62 µM. In the case of `CC1(C(=O)CSc2ncn[nH]2)CCC(=O)O1` (centres undefined), the Potency is reported as inconclusive: 3.7 µM [inhibitor, partial curve, poor fit].
